The test system of the test is L1210 leukemia ip in BDF1 mice, survival T/C. Briefly: NCI In Vivo Anticancer Drug Screen. Data for tumor model L1210 Leukemia (intraperitoneal) in B6D2F1 (BDF1) mice. The following applies: T/C endpoint: mean survival time, higher T/C = longer survival.
The mark [1] stands for this setting: dose: 100.0 mg/kg/injection, schedule: Q01DX009 (ip), vehicle: Klucel (hydroxypropylcellulose) (HPC).
The mark [2] stands for this setting: dose: 400.0 mg/kg/injection, schedule: Q04DX002 (ip), vehicle: Klucel (hydroxypropylcellulose) (HPC).
Where [3] appears, read: dose: 200.0 mg/kg/injection, schedule: Q04DX003 (ip), vehicle: saline.
Where [4] appears, read: dose: 400.0 mg/kg/injection, schedule: Q04DX003 (ip), vehicle: saline.
The mark [5] stands for this setting: dose: 100.0 mg/kg/injection, schedule: Q04DX002 (ip), vehicle: saline with Tween-80.
[6] abbreviates: dose: 200.0 mg/kg/injection, schedule: Q04DX002 (ip), vehicle: saline with Tween-80.

The list shows only some results of the screen, not a fair sample: it is rich in T/C values a quarter to a half above the control, in often repeated tests (any T/C) and in doses without a T/C. Other doses and runs of a compound stand elsewhere. T/C gives the treated animals as a percentage of the vehicle group. Some entries give survivors of the animals treated and no T/C: the source holds a T/C of zero for them, seemingly a mark for toxic or unscored doses. Some doses without a T/C left all or most animals alive at the check, yet need not have been tolerated: the source hardly ever lists a survival T/C far under the control, and the zero likely stands for such cases as well. Counts of survivors are from the toxicity check (mostly the fifth day) where no day follows; animals may have died later. Schedules are NCI's codes, taken here to give the interval after Q, in days (D) or hours (H), and the number of doses after X. Some schedule codes hold Z or #, which are not explained here. Where survival is the endpoint, the PubChem record calls one and a half times the control and up active, and a quarter to a half above the control has no call in these data; cut-offs in other NCI protocols can differ. Some T/C values are followed by the survivors on the day toxicity was checked, most often the fifth; without a count, all were alive then.

As to `CC[C@@H]1O[C@@H]([C@@H]2CC[C@](O)([C@]3(C)CC[C@@H]([C@@H](C)[C@@]4(O)CC[C@H](C)[C@@H](C[C@@]5(O)O[C@@H]([C@@H](C)[C@H](O)C[C@H]6CC[C@H](C)[C@@H]([C@@H](C)C(=O)O)O6)CC[C@@H]5C)O4)O3)O2)CC[C@@]1(C)O`, the survivor count (dose: 0.78 mg/kg/injection, schedule: Q04DX002 (ip), vehicle: saline) was 2 of 3; the survivor count (dose: 1.56 mg/kg/injection, schedule: Q04DX002 (ip), vehicle: saline) is 0 of 3; the survivor count (dose: 3.12 mg/kg/injection, schedule: Q04DX002 (ip), vehicle: saline) is on record as 0 of 3; the survivor count (dose: 6.25 mg/kg/injection, schedule: Q04DX002 (ip), vehicle: saline) is on record as 1 of 3; the survivor count (dose: 12.5 mg/kg/injection, schedule: Q04DX002 (ip), vehicle: saline) was 0 of 3; the survivor count (dose: 25.0 mg/kg/injection, schedule: Q04DX002 (ip), vehicle: saline) is recorded as 0 of 3. Besides, the survivor count is 0 of 3 (dose: 50.0 mg/kg/injection, schedule: Q04DX002 (ip), vehicle: saline); 0 of 3 (dose: 100.0 mg/kg/injection, schedule: Q04DX002 (ip), vehicle: saline); 0 of 3 (dose: 200.0 mg/kg/injection, schedule: Q04DX002 (ip), vehicle: saline).
Consider `O=C(Cc1ccccc1)NCc1ccco1`, for which the survivor count is given as 1 of 6 under setting [1]; 0 of 3 (dose: 200.0 mg/kg/injection, schedule: Q04DX002 (ip), vehicle: Klucel (hydroxypropylcellulose) (HPC)); 0 of 3 under setting [2].
With `CC(C)(C)OC(=O)C(CC(=O)O)NC(=O)OCc1ccccc1` (centres undefined) (tested in a mixture with another compound), the survivor count reads like this: under setting [3], 3 of 6; under setting [4], 0 of 6.
On to `CC(=O)N(NC(=O)c1ccccn1)C(C)=O`, for which the survivor count (dose: 400.0 mg/kg/injection, schedule: Q01DX001 (ip), vehicle: water) was 0 of 6.
With `NC(CCl)=NCC12CC3CC(CC(C3)C1)C2`, the survivor count is, setting by setting: (dose: 100.0 mg/kg/injection, schedule: Q04DX002 (ip), vehicle: Klucel (hydroxypropylcellulose) (HPC)) 1 of 3; under setting [2], 0 of 3.
On to `CCC[CH2][Sn]([I])([CH2]I)[CH2]CCC`, for which the survivor count was 0 of 3 (dose: 25.0 mg/kg/injection, schedule: Q04DX002 (ip), vehicle: saline with Tween-80); 0 of 3 under setting [5]; 0 of 3 under setting [6]; 0 of 3 (dose: 400.0 mg/kg/injection, schedule: Q04DX002 (ip), vehicle: saline with Tween-80).
On to `Nc1cnccc1Nc1ccncc1`, for which the survivor count (dose: 400.0 mg/kg/injection, schedule: Q04DX003 (ip), vehicle: saline with Tween-80) is given as 2 of 6.
For the compound `Cc1cc(S(=O)(=O)c2cc(C)c(O)c(C(=O)O)c2)cc(C(=O)O)c1O`, the survivor count (dose: 400.0 mg/kg/injection, schedule: Q04DX002 (ip), vehicle: carboxymethylcellulose (CMC)) is recorded as 1 of 3.
As to `C=C(NC(C)=O)C(O)c1ccc([N+](=O)[O-])cc1` (centres undefined), the survivor count (dose: 50.0 mg/kg/injection, schedule: Q01DX001 (ip), vehicle: carboxymethylcellulose (CMC)) is on record as 2 of 4.
For `CN(N=O)C(=O)NC(=O)N(C)N=O`, the T/C is, setting by setting: (dose: 9.0 mg/kg/injection, schedule: Q01DX Z (ip), vehicle: carboxymethylcellulose (CMC)) 132 % of control [5 of 6 alive]; (dose: 37.0 mg/kg/injection, schedule: Q01DX Z (ip), vehicle: carboxymethylcellulose (CMC)) 137 % of control. The survivor count runs as follows: (dose: 100.0 mg/kg/injection, schedule: Q01DX Z (ip), vehicle: carboxymethylcellulose (CMC)) 5 of 6; (dose: 150.0 mg/kg/injection, schedule: Q01DX Z (ip), vehicle: carboxymethylcellulose (CMC)) 5 of 6; (dose: 200.0 mg/kg/injection, schedule: Q01DX Z (ip), vehicle: carboxymethylcellulose (CMC)) 0 of 6; (dose: 216.0 mg/kg/injection, schedule: Q01DX001 (ip), vehicle: carboxymethylcellulose (CMC)) 0 of 10; (dose: 432.0 mg/kg/injection, schedule: Q01DX001 (ip), vehicle: carboxymethylcellulose (CMC)) 0 of 10.
`CN1C(=O)N(C)C(=O)C(Cc2ccccc2)(Cc2ccccc2)C1=O`: the survivor count is given as 3 of 6 (dose: 40.0 mg/kg/injection, schedule: Q01DX001 (ip), vehicle: saline); 0 of 6 (dose: 75.0 mg/kg/injection, schedule: Q01DX001 (ip), vehicle: saline); 0 of 6 (dose: 150.0 mg/kg/injection, schedule: Q01DX001 (ip), vehicle: saline); 0 of 6 (dose: 300.0 mg/kg/injection, schedule: Q01DX001 (ip), vehicle: saline).
`NC(=O)c1cccn1-c1cccc2c(-n3cccc3C(N)=O)cccc12`: the survivor count is on record as 2 of 3 under setting [5] and 2 of 3 under setting [6].
As to `CCC(CC)CC1CN2CCc3cc(OC)c(OC)cc3C2CC1(O)CC` (centres undefined), the survivor count reads like this: under setting [1], 0 of 6; (dose: 100.0 mg/kg/injection, schedule: Q04DX003 (ip), vehicle: Klucel (hydroxypropylcellulose) (HPC)) 2 of 4; (dose: 200.0 mg/kg/injection, schedule: Q01DX009 (ip), vehicle: Klucel (hydroxypropylcellulose) (HPC)) 0 of 6; (dose: 200.0 mg/kg/injection, schedule: Q04DX003 (ip), vehicle: Klucel (hydroxypropylcellulose) (HPC)) 1 of 4; (dose: 400.0 mg/kg/injection, schedule: Q01DX009 (ip), vehicle: Klucel (hydroxypropylcellulose) (HPC)) 0 of 6; (dose: 400.0 mg/kg/injection, schedule: Q04DX003 (ip), vehicle: Klucel (hydroxypropylcellulose) (HPC)) 0 of 4.
On to `O=[N+]([O-])c1nc2ccccc2[nH]1`, for which the survivor count (dose: 200.0 mg/kg/injection, schedule: Q01DX001 (ip), vehicle: other) is reported as 0 of 4 and the survivor count (dose: 400.0 mg/kg/injection, schedule: Q01DX001 (ip), vehicle: other) was 0 of 4.
`NC(N)=N/N=C/c1ccc2c(c1)CCC2`: the survivor count runs as follows: (dose: 100.0 mg/kg/injection, schedule: Q04DX003 (ip), vehicle: saline) 0 of 6; under setting [3], 0 of 6; under setting [4], 0 of 6.
Regarding `Cc1c2oc3c(C)ccc(C(=O)NC4C(=O)NC(C(C)C)C(=O)N5CCCC5C(=O)N(C)CC(=O)N(C)C(C(C)C)C(=O)OC4C)c3nc-2c(C(=O)NC2C(=O)NC(C(C)C)C(=O)N3CCCC3C(=O)N(C)CC(=O)N(C)C(C(C)C)C(=O)OC2C)cc1=O` (centres undefined), the T/C (dose: 25.0 micrograms/kg/injection, schedule: Q01DX009 (ip), vehicle: saline + alcohol) was 149 % of control.

Source of the values: PubChem BioAssay AID248 (DTP/NCI, 2004).
